Data as given in PubChem BioAssay AID1508597 (Cure First, 2020).

- Purpose: 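Knock-downs altering ovarian cancer cell survival with or without PARP inhibitor rucaparib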 (primary screen)
- Cell system: human ovarian carcinoma lines grown from tumours: OCI-P5x (papillary serous) and OCI-C5x (clear cell)
- Knock-down reagent: siRNA pool against human genes, 1.25 pmol siRNA per well
- Time to read-out: 72 h or 96 h, depending on the cell culture
- Conditions: rucaparib 20 µM (about IC30) or vehicle, present until read-out
- Detection: 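Luminescent ATP-based viability assay read 72 or 96 h after transfection, depending on culture, given as normalised percent viability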
- Reading the numbers: viability, normalised: higher = more viable cells remaining
- Hit rule: 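a well counts as a hit if its normalised viability is under 80 percent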
- Meaning of the calls: active = viability under 80%; inactive = viability 80% or more
Shown is one part, drawn at random, of about 2,100 reagents tested. 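Calls flag viability under 80% in either arm, not effects specific to rucaparib; the reference for percent is not stated.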 Entries without a mark were called inactive. The record does not give: the 100% reference.

Gene,rucaparib or vehicle,cell line,technical replicate,"viability, normalised (%)"
RUVBL1,Rucaparib,OCI-C5x (clear cell),1,43.9 (active)
RUVBL1,Rucaparib,OCI-C5x (clear cell),2,55.6 (active)
RUVBL1,Rucaparib,OCI-C5x (clear cell),3,39.5 (active)
RUVBL1,Rucaparib,OCI-P5x (serous),1,56.6 (active)
RUVBL1,Rucaparib,OCI-P5x (serous),2,49.9 (active)
RUVBL1,Rucaparib,OCI-P5x (serous),3,50.8 (active)
RUVBL1,Vehicle,OCI-C5x (clear cell),1,36.3 (active)
RUVBL1,Vehicle,OCI-C5x (clear cell),2,28.1 (active)
RUVBL1,Vehicle,OCI-C5x (clear cell),3,39.2 (active)
RUVBL1,Vehicle,OCI-P5x (serous),1,58.7 (active)
RUVBL1,Vehicle,OCI-P5x (serous),2,63.3 (active)
RUVBL1,Vehicle,OCI-P5x (serous),3,62.3 (active)
FYN,Rucaparib,OCI-C5x (clear cell),1,64.1 (active)
FYN,Rucaparib,OCI-C5x (clear cell),2,44 (active)
FYN,Rucaparib,OCI-C5x (clear cell),3,60.6 (active)
FYN,Rucaparib,OCI-P5x (serous),1,87.4
FYN,Rucaparib,OCI-P5x (serous),2,79.7 (active)
FYN,Rucaparib,OCI-P5x (serous),3,77.3 (active)
FYN,Vehicle,OCI-C5x (clear cell),1,65.8 (active)
FYN,Vehicle,OCI-C5x (clear cell),2,42.3 (active)
FYN,Vehicle,OCI-C5x (clear cell),3,56.8 (active)
FYN,Vehicle,OCI-P5x (serous),1,81.6
FYN,Vehicle,OCI-P5x (serous),2,71.7 (active)
FYN,Vehicle,OCI-P5x (serous),3,87.6
CAMK4,Rucaparib,OCI-C5x (clear cell),1,55.2 (active)
CAMK4,Rucaparib,OCI-C5x (clear cell),2,54.1 (active)
CAMK4,Rucaparib,OCI-C5x (clear cell),3,60.6 (active)
CAMK4,Rucaparib,OCI-P5x (serous),1,110
CAMK4,Rucaparib,OCI-P5x (serous),2,99.8
CAMK4,Rucaparib,OCI-P5x (serous),3,98.2
CAMK4,Vehicle,OCI-C5x (clear cell),1,82.1
CAMK4,Vehicle,OCI-C5x (clear cell),2,58.5 (active)
CAMK4,Vehicle,OCI-C5x (clear cell),3,76.2 (active)
CAMK4,Vehicle,OCI-P5x (serous),1,105
CAMK4,Vehicle,OCI-P5x (serous),2,86.1
CAMK4,Vehicle,OCI-P5x (serous),3,98.6
CDKL1,Rucaparib,OCI-C5x (clear cell),1,67.6 (active)
CDKL1,Rucaparib,OCI-C5x (clear cell),2,44.9 (active)
CDKL1,Rucaparib,OCI-C5x (clear cell),3,64.5 (active)
CDKL1,Rucaparib,OCI-P5x (serous),1,98.2
CDKL1,Rucaparib,OCI-P5x (serous),2,90.9
CDKL1,Rucaparib,OCI-P5x (serous),3,99.1
CDKL1,Vehicle,OCI-C5x (clear cell),1,58.9 (active)
CDKL1,Vehicle,OCI-C5x (clear cell),2,70.5 (active)
CDKL1,Vehicle,OCI-C5x (clear cell),3,65.5 (active)
CDKL1,Vehicle,OCI-P5x (serous),1,94
CDKL1,Vehicle,OCI-P5x (serous),2,84.9
CDKL1,Vehicle,OCI-P5x (serous),3,75.3 (active)
CPS1,Rucaparib,OCI-C5x (clear cell),1,47.6 (active)
CPS1,Rucaparib,OCI-C5x (clear cell),2,78.3 (active)
CPS1,Rucaparib,OCI-C5x (clear cell),3,61.2 (active)
CPS1,Rucaparib,OCI-P5x (serous),1,64.7 (active)
CPS1,Rucaparib,OCI-P5x (serous),2,39.1 (active)
CPS1,Rucaparib,OCI-P5x (serous),3,70.4 (active)
CPS1,Vehicle,OCI-C5x (clear cell),1,59.3 (active)
CPS1,Vehicle,OCI-C5x (clear cell),2,58.1 (active)
CPS1,Vehicle,OCI-C5x (clear cell),3,50.5 (active)
CPS1,Vehicle,OCI-P5x (serous),1,59.3 (active)
CPS1,Vehicle,OCI-P5x (serous),2,66.5 (active)
CPS1,Vehicle,OCI-P5x (serous),3,55.5 (active)

A run of entries of the results above, as a working copy:
Gene,rucaparib or vehicle,cell line,technical replicate,"viability, normalised (%)"
CDKL1,Rucaparib,OCI-C5x (clear cell),1,67.6 (active)
CDKL1,Rucaparib,OCI-C5x (clear cell),2,44.9 (active)
CDKL1,Rucaparib,OCI-C5x (clear cell),3,64.5 (active)
CDKL1,Rucaparib,OCI-P5x (serous),1,98.2
CDKL1,Rucaparib,OCI-P5x (serous),2,90.9
CDKL1,Rucaparib,OCI-P5x (serous),3,99.1
CDKL1,Vehicle,OCI-C5x (clear cell),1,58.9 (active)
CDKL1,Vehicle,OCI-C5x (clear cell),2,70.5 (active)
CDKL1,Vehicle,OCI-C5x (clear cell),3,65.5 (active)
CDKL1,Vehicle,OCI-P5x (serous),1,94
